Some of the results follow.
target: OsWRKY34 (Oryza sativa, UniProt Q0JBA9 1-250); assay: protein-binding microarray (RPBM); PBS, 2% BSA, 51.3 ng/ul salmon testes DNA, 50 uM zinc acetate, 200 nM TF, 25 C, 1 h; high values mean tight binding; details: protein: recombinant; tags: N-terminal polyhistidine and DsRed monomer fusion (pET32a); label: CyDye5-dUTP incorporated in the synthesized complementary strand; 3' TTTTT single-stranded linker to array surface; dsDNA, one strand shown
Procedure, shortened: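 Polyhistidine-tagged DsRed fusions of transcription factors, joined at the N-terminus, were expressed in E. coli BL21-CodonPlus and isolated on Ni–NTA. They were incubated at 200 nM for 1 h at 25 °C on a custom Agilent array, double-stranded and BSA-blocked, in PBS with 2% BSA, salmon testes DNA and 50 µM zinc acetate. The binding signal is per-feature fluorescence intensity (arbitrary units) read on an Axon 4000B scanner after washing.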

The chains behind the UniProt entries cited, without tags or fusion partners.
UniProt Q0JBA9, entry or part of it: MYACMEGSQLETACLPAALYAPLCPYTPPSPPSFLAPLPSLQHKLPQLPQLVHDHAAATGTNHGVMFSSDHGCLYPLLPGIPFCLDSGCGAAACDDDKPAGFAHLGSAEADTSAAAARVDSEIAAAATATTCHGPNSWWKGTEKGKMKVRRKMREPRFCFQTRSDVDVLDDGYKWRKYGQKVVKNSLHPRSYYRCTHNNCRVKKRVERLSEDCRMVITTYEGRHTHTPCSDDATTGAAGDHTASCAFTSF

Sequence | binding signal
TTCTGTTTGGTGCCTCGAGGCCCAGGTCTAACTTAGCCTCCGGAGTCACCTAGTGCAG | 8370 fluorescence intensity (a.u.)
GAGTTGGTAAAGGTGCTCTTTGGGGAGGTGGAGGTCTTAACGGAGTCACCTAGTGCAG | 11000 fluorescence intensity (a.u.)
GCAGGGTTGTGATGCTAGTTTGGTGAGTGCTCAATTTATGCGGAGTCACCTAGTGCAG | 8170 fluorescence intensity (a.u.)
TGCTAATGTCTTTATCTTCTTGCAGGTCATGGGGATTTGACGGAGTCACCTAGTGCAG | 9880 fluorescence intensity (a.u.)
CCAACCATTGCCTTTTTTTACTATATAAAAATTTTGTTTTCGGAGTCACCTAGTGCAG | 9810 fluorescence intensity (a.u.)
CATCTAGCAATCTGACTGTGTTTCATGTTTTCTTTTTAAGCGGAGTCACCTAGTGCAG | 10300 fluorescence intensity (a.u.)
ACTCGTGATCGTGCCGCGCCTACTGGATCTCTGCTTCTGACGGAGTCACCTAGTGCAG | 11300 fluorescence intensity (a.u.)
ACTGGTTCTATGTCTTCTCATAAGCTACTCGCCATCCATTCGGAGTCACCTAGTGCAG | 14000 fluorescence intensity (a.u.)
CCGCTCCGCCGCTCCGTGCTCCGACCTCCGGCGACCCCGGCGGAGTCACCTAGTGCAG | 11300 fluorescence intensity (a.u.)
TCCATTCCAACTTCAAAGCGCTCACTCTCCAGCTGCAAGACGGAGTCACCTAGTGCAG | 9260 fluorescence intensity (a.u.)
GTGGGTGGTGGCGGCGGCGGCGGCGGCGAGGGTTTCTGGGCGGAGTCACCTAGTGCAG | 10600 fluorescence intensity (a.u.)
ACACTTATTTCTTCATTTTTCTTTTTTTTTTTTTTGCAAACGGAGTCACCTAGTGCAG | 12400 fluorescence intensity (a.u.)
AGGCGACGACGCGACTTTTCGCACCAGGTGCTTCCTCTCTCGGAGTCACCTAGTGCAG | 8050 fluorescence intensity (a.u.)
CATAAATTTTTAACTTTTCCATCACATCGTTCCAATTTTGCGGAGTCACCTAGTGCAG | 9140 fluorescence intensity (a.u.)
TTTCACTCCGGCTTATTAGCATGTTGATCCTTCATCCTTACGGAGTCACCTAGTGCAG | 8860 fluorescence intensity (a.u.)
GTCCACATTTGTTAGAGAGGTCAATTCCCTTCTTTTTTTTCGGAGTCACCTAGTGCAG | 9170 fluorescence intensity (a.u.)
CTATTTTCCTGCTCTCTCGCTTTGCCACATCACTATCGATCGGAGTCACCTAGTGCAG | 8780 fluorescence intensity (a.u.)
ACCATCGGGCCTACCTGCCCGCGCCGGCGCCGCCGATCAACGGAGTCACCTAGTGCAG | 9160 fluorescence intensity (a.u.)
TGATTTGCCACTGACTTTATCACGTTTTATAATGTGCCATCGGAGTCACCTAGTGCAG | 8250 fluorescence intensity (a.u.)
TTCTTTGCGGTCTCTCTGATTACTTGCAGTGGTGCTTGTTCGGAGTCACCTAGTGCAG | 9350 fluorescence intensity (a.u.)
TACAGTTTCTTCGTTTTGAGTTAGAGCGAGACTCCGGCGCCGGAGTCACCTAGTGCAG | 8070 fluorescence intensity (a.u.)
GGAGCTAGTCCAACCTACCGCAGTCACACCACCCCGCTATCGGAGTCACCTAGTGCAG | 9270 fluorescence intensity (a.u.)
ATAAGTTGGGCTGGTTTTCTGATTGAGGGATGTGATTCGACGGAGTCACCTAGTGCAG | 8180 fluorescence intensity (a.u.)
GTTTATAATTATAGCTTGTCTTATGCATACTCACTGTATGCGGAGTCACCTAGTGCAG | 8720 fluorescence intensity (a.u.)
ACCGCTTGTTTTTTAGAGACACATAAGTTTTTTCCAGCTACGGAGTCACCTAGTGCAG | 8410 fluorescence intensity (a.u.)
GTTATCTTCTGTGAGGTTTTTCTCTTTATCTGTTTTCTCCCGGAGTCACCTAGTGCAG | 10500 fluorescence intensity (a.u.)
CTGTCCCCACCTGTCACATGCCTCACGCAGCAGAGCTCAACGGAGTCACCTAGTGCAG | 9310 fluorescence intensity (a.u.)

Looked up above.
GGAGCTAGTCCAACCTACCGCAGTCACACCACCCCGCTATCGGAGTCACCTAGTGCAG | binding signal: 9270 fluorescence intensity (a.u.)
TTCTGTTTGGTGCCTCGAGGCCCAGGTCTAACTTAGCCTCCGGAGTCACCTAGTGCAG | binding signal: 8370 fluorescence intensity (a.u.)
ACCATCGGGCCTACCTGCCCGCGCCGGCGCCGCCGATCAACGGAGTCACCTAGTGCAG | binding signal: 9160 fluorescence intensity (a.u.)
CTATTTTCCTGCTCTCTCGCTTTGCCACATCACTATCGATCGGAGTCACCTAGTGCAG | binding signal: 8780 fluorescence intensity (a.u.)

More results follow:

Sequence | binding signal
AGTTTGCATTTTGCCCCTTTTCTATTGCAGTATTGCATATCGGAGTCACCTAGTGCAG | 8070 fluorescence intensity (a.u.)
TCGTTTTGTTTACTTTCGTGTTTATTAGGTCTGTCCACATCGGAGTCACCTAGTGCAG | 11400 fluorescence intensity (a.u.)
GATCAGCCATGATATGGAGCAAGTCGAGAGCTTGTTGACTCGGAGTCACCTAGTGCAG | 8120 fluorescence intensity (a.u.)
ATTCCCCATCCAACTGAGCTGCATCGCCGCCGTCGCCGCCCGGAGTCACCTAGTGCAG | 11200 fluorescence intensity (a.u.)
TCCTGTATATATGTCCTTTTTAATGTGTGTGTATAATTAACGGAGTCACCTAGTGCAG | 8940 fluorescence intensity (a.u.)
AAGAAGGGGAAGGGAGTTTCTATGGTTCTTGCTGGTGCCGCGGAGTCACCTAGTGCAG | 8750 fluorescence intensity (a.u.)
GCCCGAACCTGTATACATCGCCCGTGTCTTGTGCTTTTTCCGGAGTCACCTAGTGCAG | 11700 fluorescence intensity (a.u.)
TTTAGTTGGTCTATCTTGAGCATTTCTTCTGAGTATTCAACGGAGTCACCTAGTGCAG | 8700 fluorescence intensity (a.u.)
CGCCACCACTCGCCTCCGTCTCTAACGCCTCCGCTGCCGTCGGAGTCACCTAGTGCAG | 9440 fluorescence intensity (a.u.)
ACCGGGTGTTTTTTTATCGGATTTTCTGTCTAACACTGTACGGAGTCACCTAGTGCAG | 10000 fluorescence intensity (a.u.)
TAGGTGTAGATGGATAAAAGAGTTCGGGGTGGTTTAAAGTCGGAGTCACCTAGTGCAG | 9010 fluorescence intensity (a.u.)
TACTCCTACCCACCCACTCGTACGGCCGAACGTCTGGCACCGGAGTCACCTAGTGCAG | 8550 fluorescence intensity (a.u.)
CCACAAATATCCCCTAGTGCCTTTTGTTTGGCCGTGGTGTCGGAGTCACCTAGTGCAG | 8860 fluorescence intensity (a.u.)
GGGTTCGTCTGCGGTTCGCTGCCCGTCTTCGTCCAGTTCCCGGAGTCACCTAGTGCAG | 10800 fluorescence intensity (a.u.)
TCTAGGCTCGTTATGTTTTGTATGTACTTGTATAAAAGACCGGAGTCACCTAGTGCAG | 8070 fluorescence intensity (a.u.)
AATCAGCACGTCCTCAATCTATCGTCCACTCTCACAGTCTCGGAGTCACCTAGTGCAG | 8120 fluorescence intensity (a.u.)
TTTTTATTCCACCGCTTTGTCGTTCTCGCAATCTCGCTGTCGGAGTCACCTAGTGCAG | 17700 fluorescence intensity (a.u.)
GGCTGCACAGAATTTCGGTTTGAACGTTTTTTTTGGGGTTCGGAGTCACCTAGTGCAG | 9770 fluorescence intensity (a.u.)
GTTCTTGACCTCAAAAATTGTCGACAGCTCACTATCTACTCGGAGTCACCTAGTGCAG | 8520 fluorescence intensity (a.u.)
CTTCTGTCACGTACGCCCGTCCCTCATATGGCCAATCGCGCGGAGTCACCTAGTGCAG | 13400 fluorescence intensity (a.u.)
CTCTTCTTTTCTGCCTCCTCCATCATCTTCAACAATTGATCGGAGTCACCTAGTGCAG | 8930 fluorescence intensity (a.u.)
GTGTCTCAGTCAACATCAATTGATTGATCAATATAACAACCGGAGTCACCTAGTGCAG | 8230 fluorescence intensity (a.u.)
TCGTCACCCCTAACCCTAGGCTGAGTCATCCTCTTATCCGCGGAGTCACCTAGTGCAG | 9020 fluorescence intensity (a.u.)
CCCACCCGCGATCCCTGATCTCCTCTCCGCTCCTCCGCGCCGGAGTCACCTAGTGCAG | 9820 fluorescence intensity (a.u.)
CCTATCCAACTTCTTCACCGCTAGCCGCCGCCCAACCGGCCGGAGTCACCTAGTGCAG | 8740 fluorescence intensity (a.u.)
GAGGAGGAAGGGAGGGGTTGTCAGCAGCTAGGGTTTTGACCGGAGTCACCTAGTGCAG | 10300 fluorescence intensity (a.u.)
TGAGGCCATCTTTTGATATCCCTTATCCCTAAAATATTTCCGGAGTCACCTAGTGCAG | 8470 fluorescence intensity (a.u.)
